{
  "sequences": {"note": "By UniProt entry, the sequences of proteins in these tests, tags left out.", "UniProt P09471, whole entry, looked up": "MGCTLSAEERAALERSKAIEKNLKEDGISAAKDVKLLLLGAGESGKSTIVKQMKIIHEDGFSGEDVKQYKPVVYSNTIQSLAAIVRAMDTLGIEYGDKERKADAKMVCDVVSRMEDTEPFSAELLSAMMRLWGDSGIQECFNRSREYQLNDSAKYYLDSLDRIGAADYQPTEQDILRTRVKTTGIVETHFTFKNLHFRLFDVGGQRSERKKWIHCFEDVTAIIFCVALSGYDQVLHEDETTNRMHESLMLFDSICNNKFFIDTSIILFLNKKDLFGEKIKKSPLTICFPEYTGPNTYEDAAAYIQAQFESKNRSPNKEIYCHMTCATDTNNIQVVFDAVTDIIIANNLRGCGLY"},
  "source": "PubChem BioAssay AID1439",
  "about": "(NMMLSC, 2008)",
  "note": "Out of some 220,000 compounds screened, about 770 (0.35%) were called active. The inconclusive results got no clear call from the source; some entries with a clear call stand among them for comparison. Rule as the data show it: active = binding response below about 49% or above about 150%; inconclusive = no clear call, values can overlap the other calls; inactive = in between.",
  "data": [
    {"biological_target": "Guanine nucleotide-binding protein G(o) subunit alpha (Homo sapiens) (UniProt P09471)", "experiment": "RGS7-Galphao binding modulators, primary screen, biochemical, multiplexed bead flow cytometry (AID 1439);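 also: fluorescent Galphao held in activated GDP-AlF4 state binding bead-coupled RGS7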", "conditions": "at 10 µM, actives lie on both sides", "values": [
      {"smiles": "CN1CCN(C(=O)CCC(=O)O)CC1", "binding response (% of control)": "inconclusive: 87.4%"},
      {"smiles": "CC1(C)CC(=O)c2cc(NC(=O)c3ccc(F)cc3)c(=O)oc2C1", "binding response (% of control)": "inconclusive: 107%"},
      {"smiles": "Cc1ccc(/C=C\\c2nccc3c2[nH]c2ccccc23)cc1", "binding response (% of control)": "inconclusive: 101%"},
      {"smiles": "C=CCNC(=S)N1CCN(c2ncc(C(F)(F)F)cc2Cl)CC1", "binding response (% of control)": "inconclusive: 298%"},
      {"smiles": "O=C(COC(=O)c1ccc(S(=O)(=O)NCc2ccco2)cc1)c1ccccc1", "binding response (% of control)": "inactive: 102%"},
      {"smiles": "O=C1S/C(=C\\c2ccc(N3CCOCC3)o2)C(=O)N1Cc1ccc(F)cc1", "binding response (% of control)": "active: 153% [activator]"},
      {"smiles": "CCCCC(=O)NS(=O)(=O)c1ccc(N=NN(CC)CC)cc1", "binding response (% of control)": "inactive: 96.6%"},
      {"smiles": "Clc1ccc(Cn2cnc3ccccc32)cc1", "binding response (% of control)": "inactive: 104%"},
      {"smiles": "Cc1nc(C(=O)O)nn1-c1cc(Cl)ccc1Cl", "binding response (% of control)": "inactive: 90.3%"},
      {"smiles": "COC(=O)CC1C(=O)NC2CCCCC2N1C(=O)CCl", "note": "(centres undefined)", "binding response (% of control)": "inconclusive: 145%"},
      {"smiles": "O=C1CC(Sc2ccc(Cl)cc2)C(=O)N1Cc1ccncc1", "note": "(centres undefined)", "binding response (% of control)": "inconclusive: 85.3%"},
      {"smiles": "Cc1cc(C)c2c(NC(=S)NC(=O)c3ccccc3)nn(C)c2n1", "binding response (% of control)": "inconclusive: 106%"},
      {"smiles": "O=C(O)CCC(=O)NNC(=O)c1ccc([N+](=O)[O-])cc1", "binding response (% of control)": "inconclusive: 87.2%"},
      {"smiles": "CC(=O)Nc1nc2c(s1)C(=O)NCCC2", "binding response (% of control)": "inconclusive: 111%"},
      {"smiles": "CCOC(=O)Cc1csc(NC(=O)NC2(C(F)(F)F)Oc3ccc(Cl)cc3O2)n1", "note": "(centres undefined)", "binding response (% of control)": "inactive: 93.6%"},
      {"smiles": "NC(=O)[C@@H]1CCCCNc2c(I)cc([N+](=O)[O-])cc2C(=O)N[C@@H](CCC(=O)O)C(=O)N[C@@H](CO)C(=O)N1", "binding response (% of control)": "inactive: 100%"},
      {"smiles": "Cc1oc(S(=O)(=O)N2CCOCC2)cc1C(=O)Nc1ccc(Cl)cc1", "binding response (% of control)": "inconclusive: 101%"},
      {"smiles": "Cc1ccc2nc(Cl)c(/C=N/Nc3ccc(C(=O)O)cc3)cc2c1", "binding response (% of control)": "inconclusive: 122%"},
      {"smiles": "Cc1ccc(Cl)c(NC(=O)CN2CCNC(=O)C2)c1Cl", "binding response (% of control)": "inconclusive: 98.2%"},
      {"smiles": "Cc1[nH]c2ccccc2c1/C=N/NC(=O)C1CC1(c1ccccc1)c1ccccc1", "note": "(centres undefined)", "binding response (% of control)": "inactive: 148%"},
      {"smiles": "Cc1cc(C)c(O)c(N)c1", "binding response (% of control)": "inactive: 106%"},
      {"smiles": "CC1=CC(C)(C)N(C(=O)CNC2CCCCC2)c2cc(C)ccc21", "binding response (% of control)": "inactive: 101%"},
      {"smiles": "COc1ccc(N2CCN(C(=O)c3oc4ccccc4c3C)CC2)cc1", "binding response (% of control)": "inconclusive: 75.6%"},
      {"smiles": "NC(=O)c1ccsc1NC(=O)CSc1nnc2ccccn12", "binding response (% of control)": "inconclusive: 83.7%"},
      {"smiles": "COc1ccc(/C=N/NC(=O)c2cc(C)oc2C)cc1OC", "binding response (% of control)": "inconclusive: 86.7%"},
      {"smiles": "CCOc1ccc(Br)cc1S(=O)(=O)Nc1ccc(C(=O)OCC(=O)Nc2ccc(C#N)cc2)cc1", "binding response (% of control)": "inconclusive: 103%"},
      {"smiles": "CC(=O)c1c(C)nc(Nc2nc3ccccc3s2)nc1C", "binding response (% of control)": "inconclusive: 114%"},
      {"smiles": "CCCCCCC#Cc1cncc(C(=O)NNC(=O)Nc2cc(Cl)cc(Cl)c2)c1", "binding response (% of control)": "inconclusive: -9.64%"},
      {"smiles": "CC(C)Oc1cccc(C(=O)NC(=S)Nc2cccc(NC(=O)c3ccccc3Cl)c2)c1", "binding response (% of control)": "inactive: 93.5%"},
      {"smiles": "CCO[C@H]1OC(C(=O)N2CCN(C)CC2)=C[C@@H](C)[C@@H]1CCCO", "binding response (% of control)": "inactive: 98.3%"},
      {"smiles": "CCN(c1cccc(C)c1)c1nc2ccsc2c(=O)s1", "binding response (% of control)": "inactive: 93.8%"},
      {"smiles": "CSc1ccccc1NC(=O)C(=O)c1c[nH]c2ccccc12", "binding response (% of control)": "inactive: 78.2%"},
      {"smiles": "O=c1[nH]c(=O)n(Cc2ccccc2)c2nc(-c3cccs3)n(CCO)c12", "binding response (% of control)": "inconclusive: 113%"},
      {"smiles": "CCC1ON(C(C)C)C2c3nc4ccccc4n3CC12", "note": "(centres undefined)", "binding response (% of control)": "inconclusive: 116%"},
      {"smiles": "O=C(c1ccc(F)cc1)N1CCCC(C(=O)N2CCN(c3ccccc3)CC2)C1", "note": "(centres undefined)", "binding response (% of control)": "inconclusive: 111%"},
      {"smiles": "Clc1ccc(CSc2nnc3c(n2)[nH]c2ccccc23)cc1", "binding response (% of control)": "inconclusive: 28.7%"},
      {"smiles": "COC(=O)C1=C(C)N(c2cc(C)cc(C)c2)/C(=C/c2ccc(O)cc2)C1=O", "binding response (% of control)": "inactive: 101%"},
      {"smiles": "CCOC(=O)C1=C(C)NC(C)=C(C(=O)OCC)C1c1ccc([N+](=O)[O-])s1", "binding response (% of control)": "inconclusive: 76.7%"},
      {"smiles": "COc1ccc(NC(=O)C2CCCN2C(=O)OCc2ccccc2)cc1", "note": "(centres undefined)", "binding response (% of control)": "inconclusive: 76%"},
      {"smiles": "Nc1ccc2nc(Cc3ccccc3)[nH]c2c1", "binding response (% of control)": "inconclusive: 105%"},
      {"smiles": "O=C(Nc1sc2c(c1C(=O)O)CCCCC2)c1cccs1", "binding response (% of control)": "inconclusive: 103%"},
      {"smiles": "Cn1ncc(C(N)=O)c1NC(=S)NC(=O)c1ccc(Br)o1", "binding response (% of control)": "inconclusive: 97.6%"},
      {"smiles": "NNc1nc2sc3c(c2c(=O)n1-c1ccccc1)CCCC3", "binding response (% of control)": "inconclusive: 162%"},
      {"smiles": "O=C(c1n[nH]c2ccccc12)N1CCCCC1", "binding response (% of control)": "inconclusive: 92%"},
      {"smiles": "Cc1ccc(S(=O)(=O)N2CCCCC2)cc1NC(=O)CSc1nnnn1C", "binding response (% of control)": "inconclusive: 108%"},
      {"smiles": "C=CCN1C(=O)C(CC(=O)Nc2ccc(OCCC)cc2)N(CCCN2CCN(Cc3ccccc3)CC2)C1=S", "note": "(centres undefined)", "binding response (% of control)": "inactive: 106%"},
      {"smiles": "COc1ccc(C(=O)/C=C/Nc2ccccn2)c(OC)c1", "binding response (% of control)": "inconclusive: -537%"},
      {"smiles": "Cc1ccc(OCC(=O)N/N=C\\c2ccncc2)c(C)c1", "binding response (% of control)": "inactive: 105%"},
      {"smiles": "COc1ccc(CC(=O)NCc2nn(-c3ccccc3)nc2C)cc1OC", "binding response (% of control)": "inconclusive: 85.9%"},
      {"smiles": "CS(=O)(=O)c1ccc(Cl)c(NC(=O)Nc2ccccc2)c1", "binding response (% of control)": "inconclusive: 95.8%"},
      {"smiles": "Cc1nc(-c2nc(-c3c(C(=O)NNC(=O)Nc4ccccc4)noc3C)cs2)cs1", "binding response (% of control)": "inconclusive: 117%"},
      {"smiles": "O=C1N=C(N2CCOCC2)S/C1=C\\c1ccccc1OS(=O)(=O)c1ccccc1", "binding response (% of control)": "inconclusive: 108%"},
      {"smiles": "Cc1cccc(C(=O)NNc2ncnc3c2cnn3C)c1", "binding response (% of control)": "inactive: 102%"},
      {"smiles": "O=C(N/N=C/c1ccc([N+](=O)[O-])o1)C(O)c1ccccc1", "note": "(centres undefined)", "binding response (% of control)": "inconclusive: 105%"},
      {"smiles": "Cc1cccc(NS(=O)(=O)c2cc(C(=O)OC(C)C(=O)NCc3ccc4c(c3)OCO4)ccc2C)c1", "note": "(centres undefined)", "binding response (% of control)": "inactive: 101%"},
      {"smiles": "O=C1CCC/C1=C\\Nc1ccc(Cl)c([N+](=O)[O-])c1", "binding response (% of control)": "inconclusive: 65.6%"},
      {"smiles": "COc1ccc(CN2CCNC(=O)C2CC(=O)N(Cc2nccn2C)C(C)C)c(OC)c1", "note": "(centres undefined)", "binding response (% of control)": "inconclusive: 119%"},
      {"smiles": "CN1CCN(c2ccc(NC(=O)CN3CCOCC3)cc2F)CC1", "binding response (% of control)": "inconclusive: 105%"},
      {"smiles": "Cc1ccc(-c2cc(C(=O)N3CCN(c4ncccn4)CC3)c3cc(Br)ccc3n2)o1", "binding response (% of control)": "inconclusive: 41%"}
    ]}
  ]
}
